Values from PubChem BioAssay AID1259425 (University of Nebraska Medical Center, 2018).
Shown is a random part of about 14,000 reagents. Not stated in the record: the time to read-out.

Assay: 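Compare each knockdown with KSR1 silencing using changes in marker transcripts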 (primary screen)
Cells: HCT116 human colon cancer cells
Reagent: siRNA pool against human genes, 50 nM siRNA
Detection: 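After 50 nM siRNA pool, branched-DNA assay measures six marker transcripts per well, minus blank, normalised to the geometric mean of two housekeeping transcripts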
Scale: BNIP3L mRNA: higher = more BNIP3L transcript after knockdown; NDRG1 mRNA: higher = more NDRG1 transcript after knockdown; BNIP3 mRNA: higher = more BNIP3 transcript after knockdown; ALDOC mRNA: higher = more ALDOC transcript after knockdown; ACSL5 mRNA: higher = more ACSL5 transcript after knockdown

no.	Target gene	BNIP3L mRNA, set 1	NDRG1 mRNA, set 1	BNIP3 mRNA, set 1	ALDOC mRNA, set 1	ACSL5 mRNA, set 1
1	COX5B (GeneID 1329)	0.0832	0.0955	0.289	0.0158	0.0725
2	GRHPR (GeneID 9380)	0.0858	0.0892	0.379	0.02	0.149
3	SLC5A4 (GeneID 6527)	0.108	0.324	0.321	0.0521	0.151
4	LAMP5 (GeneID 24141)	0.097	0.155	0.253	0.0275	0.14
5	CPSF3 (GeneID 51692)	0.193	0.199	0.467	0.00986	0.614
6	SMPDL3B (GeneID 27293)	0.156	0.714	0.379	0.0362	0.157
7	CRYBG1 (GeneID 202)	0.0768	0.0585	0.236	0.0153	0.0701
8	NPM3 (GeneID 10360)	0.0816	0.116	0.325	0.0279	0.0631
9	MCOLN1 (GeneID 57192)	0.0861	0.432	0.36	0.0177	0.159
10	NR2F1 (GeneID 7025)	0.0946	0.209	0.199	0.0186	0.0895
11	KCNC3 (GeneID 3748)	0.217	0.383	0.319	0.0434	0.177
12	NPM1 (GeneID 4869)	0.185	0.167	0.272	0.0153	0.237
13	CD24 (GeneID 100133941)	0.0504	0.148	0.307	0.0114	0.181
14	PSMC2 (GeneID 5701)	0.15	1.68	0.278	0.0152	0.0916
15	PAIP2 (GeneID 51247)	0.28	0.162	0.367	0.0275	0.22
16	PRKG1 (GeneID 5592)	0.0815	0.0569	0.393	0.00553	0.231
17	SENP7 (GeneID 57337)	0.104	0.417	0.338	0.062	0.371
18	TCFL5 (GeneID 10732)	0.178	0.107	0.177	0.00685	0.266
19	GRHL1 (GeneID 29841)	0.0455	0.146	0.348	0.0648	0.0737
20	DYNLT3 (GeneID 6990)	0.149	0.522	0.408	0.0456	0.223
21	TIMP1 (GeneID 7076)	0.0945	0.296	0.222	0.0533	0.216
22	FN3K (GeneID 64122)	0.136	0.347	0.41	0.0198	0.337
23	XPO1 (GeneID 7514)	0.0536	0.19	0.316	0.00947	0.132
24	MSL3 (GeneID 10943)	0.0773	0.487	0.57	0.0258	0.246
25	RNH1 (GeneID 6050)	0.128	0.0998	0.281	0.034	0.0933
26	IL7R (GeneID 3575)	0.0885	0.128	0.221	0.0503	0.0963
27	GPR50 (GeneID 9248)	0.118	0.215	0.265	0.0492	0.2
28	C5 (GeneID 727)	0.181	0.301	0.257	0.0424	0.167
29	PRPF31 (GeneID 26121)	0.159	0.105	0.425	0.0368	0.124
30	SPPL2A (GeneID 84888)	0.148	0.163	0.281	0.0478	0.211
31	EXOSC3 (GeneID 51010)	0.141	0.382	0.409	0.0313	0.211
32	UBE2W (GeneID 55284)	0.0982	0.123	0.254	0.0117	0.125
33	EXOC3 (GeneID 11336)	0.16	0.382	0.365	0.1	0.26
34	PTRH2 (GeneID 51651)	0.191	0.364	0.266	0.0141	0.208
35	CAMP (GeneID 820)	0.103	0.131	0.401	0.0197	0.366
36	GDNF (GeneID 2668)	0.0863	0.173	0.307	0.0178	0.131
37	SLC4A1 (GeneID 6521)	0.0756	0.0775	0.35	0.0205	0.0717
38	TMX2 (GeneID 51075)	0.188	0.221	0.291	0.0242	0.198
39	SLPI (GeneID 6590)	0.102	0.289	0.278	0.0167	0.185
40	RACGAP1P1 (GeneID 83956)	0.354	0.721	0.411	0.0987	0.369
41	RASGRP2 (GeneID 10235)	0.0748	0.177	0.31	0.0067	0.267
42	KRTAP5-9 (GeneID 3846)	0.186	0.255	0.374	0.0293	0.0794
43	MAP2K4 (GeneID 6416)	0.0788	0.044	0.366	0.00703	0.147
44	CASP2 (GeneID 835)	0.124	0.251	0.376	0.0233	0.098
45	RABGGTB (GeneID 5876)	0.201	1.85	0.535	0.089	0.787
46	ERC1 (GeneID 23085)	0.0641	0.635	0.264	0.0312	0.126
47	DBN1 (GeneID 1627)	0.113	0.373	0.322	0.0185	0.144
48	TFF3 (GeneID 7033)	0.0781	0.156	0.432	0.0278	0.132
49	SYCP3 (GeneID 50511)	0.448	0.691	0.473	0.0354	0.15
50	PLK4 (GeneID 10733)	0.224	0.16	1.04	0.0216	0.225

Look-ups from the list:
CASP2 (GeneID 835), ALDOC mRNA, set 1 = 0.0233
Under “BNIP3L mRNA, set 1”, GRHPR (GeneID 9380) has 0.0858
For “NDRG1 mRNA, set 1”, CRYBG1 (GeneID 202) has 0.0585
Result for DYNLT3 (GeneID 6990) under “NDRG1 mRNA, set 1”: 0.522
KCNC3 (GeneID 3748), BNIP3L mRNA, set 1 → 0.217
Under “ALDOC mRNA, set 1”, PLK4 (GeneID 10733) reads 0.0216
